Measurements published in PMC13226697, “Stress-induced OMA1-mediated cleavage of AIFM1 suppresses cell growth by controlling mitochondrial OXPHOS activity” (The EMBO Journal, 2026).
Results are given in words; binding and its absence hold for the method and conditions named. In cells and extracts the contact can be indirect. Here binding means that the protein was enriched with, or labelled near, the bait; the list need not be complete.

By UniProt entry, the sequences of proteins in these tests, tags left out. Where a name states a change or a piece, a line headed by the entry shows the natural chain unless it says otherwise. Residues count along the entry.
UniProt Q9D8H7: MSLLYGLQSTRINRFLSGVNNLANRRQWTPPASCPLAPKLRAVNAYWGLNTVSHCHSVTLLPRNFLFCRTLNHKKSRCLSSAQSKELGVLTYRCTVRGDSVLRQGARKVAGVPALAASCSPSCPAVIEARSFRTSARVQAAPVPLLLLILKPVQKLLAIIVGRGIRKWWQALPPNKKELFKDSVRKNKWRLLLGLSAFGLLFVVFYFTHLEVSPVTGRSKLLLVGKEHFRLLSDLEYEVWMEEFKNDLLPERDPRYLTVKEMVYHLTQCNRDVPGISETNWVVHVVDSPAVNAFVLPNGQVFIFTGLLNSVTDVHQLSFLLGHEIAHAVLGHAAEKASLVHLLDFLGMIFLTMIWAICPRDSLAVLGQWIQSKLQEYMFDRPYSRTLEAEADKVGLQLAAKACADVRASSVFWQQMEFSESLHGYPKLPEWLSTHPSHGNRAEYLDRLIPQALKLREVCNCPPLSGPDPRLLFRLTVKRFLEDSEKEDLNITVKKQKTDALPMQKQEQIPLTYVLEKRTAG
UniProt Q9Z0X1: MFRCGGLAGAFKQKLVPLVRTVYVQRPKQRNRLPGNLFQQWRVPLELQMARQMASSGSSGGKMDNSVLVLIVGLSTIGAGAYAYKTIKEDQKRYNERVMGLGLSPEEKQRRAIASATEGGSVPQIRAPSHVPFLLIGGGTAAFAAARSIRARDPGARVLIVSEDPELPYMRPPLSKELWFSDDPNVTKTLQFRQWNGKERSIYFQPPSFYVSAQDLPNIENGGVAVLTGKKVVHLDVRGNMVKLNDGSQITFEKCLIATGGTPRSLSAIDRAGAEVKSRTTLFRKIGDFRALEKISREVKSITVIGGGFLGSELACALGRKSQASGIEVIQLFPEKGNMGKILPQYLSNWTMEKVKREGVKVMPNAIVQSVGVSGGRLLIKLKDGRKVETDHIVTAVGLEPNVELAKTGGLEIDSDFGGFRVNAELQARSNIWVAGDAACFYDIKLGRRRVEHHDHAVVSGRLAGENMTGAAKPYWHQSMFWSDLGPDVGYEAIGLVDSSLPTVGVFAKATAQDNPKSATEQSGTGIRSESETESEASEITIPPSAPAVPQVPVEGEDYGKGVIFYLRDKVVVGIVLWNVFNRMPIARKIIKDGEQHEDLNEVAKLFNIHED
UniProt O35129: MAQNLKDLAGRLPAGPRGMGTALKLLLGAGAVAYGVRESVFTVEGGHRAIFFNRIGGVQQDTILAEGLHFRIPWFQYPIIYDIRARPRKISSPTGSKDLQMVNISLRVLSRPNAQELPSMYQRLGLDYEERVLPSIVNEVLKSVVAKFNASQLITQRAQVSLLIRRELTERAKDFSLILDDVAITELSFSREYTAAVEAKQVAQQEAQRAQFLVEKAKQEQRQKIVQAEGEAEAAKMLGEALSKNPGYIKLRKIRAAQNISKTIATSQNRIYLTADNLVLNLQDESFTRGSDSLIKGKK
UniProt P58281, residues 88-960: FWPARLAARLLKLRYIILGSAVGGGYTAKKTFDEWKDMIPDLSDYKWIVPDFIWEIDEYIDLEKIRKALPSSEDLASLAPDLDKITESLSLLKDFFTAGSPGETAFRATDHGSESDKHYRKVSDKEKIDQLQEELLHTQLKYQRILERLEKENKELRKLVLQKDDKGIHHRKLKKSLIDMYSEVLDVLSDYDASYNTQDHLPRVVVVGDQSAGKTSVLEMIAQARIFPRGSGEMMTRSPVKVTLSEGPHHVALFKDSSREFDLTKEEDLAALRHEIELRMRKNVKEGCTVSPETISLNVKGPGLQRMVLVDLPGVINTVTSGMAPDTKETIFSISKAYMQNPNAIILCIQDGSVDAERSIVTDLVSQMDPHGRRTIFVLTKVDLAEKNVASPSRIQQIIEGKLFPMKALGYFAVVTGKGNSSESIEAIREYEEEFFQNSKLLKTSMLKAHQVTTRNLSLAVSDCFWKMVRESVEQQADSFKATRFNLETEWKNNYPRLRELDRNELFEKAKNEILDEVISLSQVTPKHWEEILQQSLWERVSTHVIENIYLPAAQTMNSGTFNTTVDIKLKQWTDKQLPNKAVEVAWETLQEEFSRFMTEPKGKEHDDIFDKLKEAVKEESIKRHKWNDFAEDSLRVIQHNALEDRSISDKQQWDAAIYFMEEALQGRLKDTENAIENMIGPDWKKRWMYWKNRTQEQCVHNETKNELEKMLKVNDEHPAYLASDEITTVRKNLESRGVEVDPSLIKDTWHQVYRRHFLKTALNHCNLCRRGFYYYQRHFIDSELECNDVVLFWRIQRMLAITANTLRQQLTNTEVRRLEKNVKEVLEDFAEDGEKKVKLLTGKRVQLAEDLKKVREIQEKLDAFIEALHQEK

Target: carboxyl-terminal Myc-tagged murine OMA1 (murine) (UniProt Q9D8H7)
Assay: affinity purification with mass spectrometry; OMA1 KO MEFs with or without OMA1/Myc, 0.2% formaldehyde 15 min 37 °C, mitochondria lysed in 0.5% digitonin, anti-Myc (My3) and Protein G beads, label-free LC-MS/MS; some hits re-measured by PRM

binding	Molecule
binds	apoptosis-inducing factor mitochondria-associated 1 (AIFM1), endogenous mouse (from UniProt Q9Z0X1)
binds	PHB2, endogenous mouse (from UniProt O35129 1-299)
binds	OPA1, endogenous mouse (from UniProt P58281 88-960)
binds	PHB1, endogenous mouse (protein, UniProt P67778 1-272) MAAKVFESIGKFGLALAVAGGVVNSALYNVDAGHRAVIFDRFRGVQDIVVGEGTHFLIPWVQKPIIFDCRSRPRNVPVITGSKDLQNVNITLRILFRPVASQLPRIYTSIGEDYDERVLPSITTEILKSVVARFDAGELITQRELVSRQVSDDLTERAATFGLILDDVSLTHLTFGKEFTEAVEAKQVAQQEAERARFVVEKAEQQKKAAIISAEGDSKAAELIANSLATAGDGLIELRKLEAAEDIAYQLSRSRNITYLPAGQSVLLQLPQ

The next lines start with the molecule.

Molecule	binding
MIC19, endogenous mouse (protein, UniProt Q9CRB9 1-227) MGGTASTRRVTFEADENENITVVKGIRLSENVIDRMKESSPSGSKSQRYSSVYGASVSDEDLKRRVAEELALEQAKKESEHQRRLKQARDLERERAAANEQLTRAVLRERISSEEERMKAKHLARQLEEKDRVMRKQDAFYKEQLARLEERSSEFYKVTTEEYQKAAEEVEAKFKRYEYHPVCADLQTKILQCYRQNTQQTLSCSALASQYMHCVNHAKQSMLEKGG	binds
MIC25, endogenous mouse (protein, UniProt Q91VN4 1-273) MGSAESAEARRVSFEMDEEERVRVLQGIRLSESVVNRMKDCSQPSAGEQLVPGFGPSSSAPVPTVPLPAISVPTVPAPTTPVPTAPSSSVRGLPGGTCKGPLTDVKVPSAESGGGLQSSAVKEDLKKFQQEQLAVQDEMVRVAKKEKEAAEKHLKASLPKKKASLTHEQQQSARLARELEDREAELSRRDTFYKEQQGRIQEKNAELYKLSSQQFHEAASKAESTIKPRRVEPVCSGLQAQILRCYRDHLHEVLLCSDLVKAYQHCVSTARKG	binds
MIC27, endogenous mouse (protein, UniProt Q78IK4 28-265) EEEPKKQLVRPDQLPIYTAPPLHSKYVEEQPGNLQRGFASIRTTTVYYIGWCKSIYLFMKNGVMDTVQFGKDAYVYLKNPPQDFLPKMGVITASGLAGLLSARKGSRFKKIAYPLGLATLGATVCYPAQSVIIAKITGKKAYATSQQIFQAIKSLWTQKSENESLPEPKEESKEGRSDEIHASLPDLKHSVSLPKELASATVIKSESTSGTTQFIPDPKLMDHGQSHPDDKDMYSTRS	binds
HTRA2/Omi, endogenous mouse (enzyme, UniProt Q9JIY5 134-458) AVPAPPPTSPRSQYNFIADVVEKTAPAVVYIEILDRHPFSGREVPISNGSGFVVASDGLIVTNAHVVADRRRVRVRLPSGDTYEAMVTAVDPVADIATLRIQTKEPLPTLPLGRSADVRQGEFVVAMGSPFALQNTITSGIVSSAQRPARDLGLPQNNVEYIQTDAAIDFGNSGGPLVNLDGEVIGVNTMKVTAGISFAIPSDRLREFLHRGEKKNSWFGTSGSQRRYIGVMMLTLTPSILIELQLREPSFPDVQHGVLIHKVILGSPAHRAGLRPGDVILAIGEKLAQNAEDVYEAVRTQSQLAVRIRRGSETLTLYVTPEVTE	binds
